Results are given in words; binding and its absence hold for the method and conditions named. Some binding calls cover weakened binding; strength is not graded here.
Key:
[1] = molecular target: clipped form of the rhuBCMA fusion protein, SEQ ID NO:357 (human); assay: SEC capture of complexes, LC/MS of bound forms (peak B)
[2] = molecular target: clipped form of the rhuBCMA fusion protein, SEQ ID NO:356 (human); assay: LC/MS chromatogram of bound forms (peak E)
[3] = molecular target: clipped form of the rhuBCMA fusion protein, SEQ ID NO:358 (human); assay: SEC capture of complexes, LC/MS of bound forms (peak C)
[4] = molecular target: clipped form of the rhuBCMA fusion protein, SEQ ID NO:354 (human); assay: LC/MS chromatogram of bound forms (peak A)
[5] = molecular target: clipped form of the rhuBCMA fusion protein, SEQ ID NO:358 (human); assay: LC/MS (ESI-TOF, reduced sample) of the SEC-isolated 29C12 + SumoBCMA sample
[6] = molecular target: clipped form of the rhuBCMA fusion protein, SEQ ID NO:356 (human); assay: as above
[7] = molecular target: clipped form of the rhuBCMA fusion protein, SEQ ID NO:357 (human); assay: as above
[8] = molecular target: clipped form of the rhuBCMA fusion protein, SEQ ID NO:354 (human); assay: as above
[9] = molecular target: clipped form of the rhuBCMA fusion protein, SEQ ID NO:355 (human); assay: size exclusion chromatography of antibody plus Sumo-BCMA
[10] = molecular target: clipped form of the rhuBCMA fusion protein, SEQ ID NO:356 (human); assay: as above
[11] = molecular target: clipped form of the rhuBCMA fusion protein, SEQ ID NO:354 (human); assay: as above
[12] = molecular target: clipped form of the rhuBCMA fusion protein, SEQ ID NO:358 (human); assay: LC/MS chromatogram of bound forms (peak C)
[13] = molecular target: clipped form of the rhuBCMA fusion protein, SEQ ID NO:357 (human); assay: LC/MS chromatogram of bound forms (peak B)
[14] = molecular target: clipped form of the rhuBCMA fusion protein, SEQ ID NO:354 (human); assay: SEC capture of complexes, LC/MS of bound forms (peak A)
[15] = molecular target: clipped form of the rhuBCMA fusion protein, SEQ ID NO:356 (human); assay: SEC capture of complexes, LC/MS of bound forms (peak E)
[16] = molecular target: TACI, full length, on transiently transfected cells (human) (UniProt O14836); assay: FACS on cells transiently transfected with the full-length receptor; positive if MFI is two times the negative control
[17] = molecular target: human BCMA (huBCMA), full length, on cells (human) (UniProt Q02223); assay: as above
[18] = molecular target: TACI, full length, on transiently transfected cells (human) (UniProt O14836); assay: FACS on transiently transfected cells
[19] = molecular target: TACI, full length, on transiently transfected cells (human) (UniProt O14836); assay: FACS on cells transiently transfected with the full-length receptor

The chains behind the UniProt entries cited, without tags or fusion partners. Where a name states a change or a piece, a line headed by the entry shows the natural chain unless it says otherwise.
UniProt O14836: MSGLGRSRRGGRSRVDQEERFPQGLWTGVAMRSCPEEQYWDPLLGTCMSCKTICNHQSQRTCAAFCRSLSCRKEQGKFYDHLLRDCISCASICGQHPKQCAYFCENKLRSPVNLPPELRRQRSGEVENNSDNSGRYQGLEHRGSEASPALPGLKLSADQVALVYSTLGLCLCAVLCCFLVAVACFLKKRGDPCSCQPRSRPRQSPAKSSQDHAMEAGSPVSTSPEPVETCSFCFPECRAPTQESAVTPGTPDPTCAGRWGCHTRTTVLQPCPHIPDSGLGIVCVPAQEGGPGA
UniProt Q02223: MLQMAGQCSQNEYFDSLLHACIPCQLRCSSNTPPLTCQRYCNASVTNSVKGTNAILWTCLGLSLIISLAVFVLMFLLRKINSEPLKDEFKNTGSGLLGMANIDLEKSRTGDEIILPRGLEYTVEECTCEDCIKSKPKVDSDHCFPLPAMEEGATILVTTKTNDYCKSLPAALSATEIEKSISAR

Measured: binding

B1: 29C12 (antibody, V domains shown)
VH: EVQLLESGGALVQPGGSLRLSCAASGFTFSSYAMNWVRQAPGKGLEWVSAISVGGDTYYADSVKGRFTISRDNSKNTLYLQMNSLRAEDTAVYYCAKDQVTMVRGVWYYYGLDVWGQGTTVTVSS
VL: DIVMIQSPLSLPVTPGEPASISCRSSQSLLHSNGNNYLDWYLQKPGQSPHLLISLGSNRTSGVPDRFSGSGSGTDFTLKISRVEAEDVGVYYCMQALQPPRRFGQGTKLEIKR
binds: [1] | [2] | [3] | [4] | [5] | [6] | [7] | [8] | [9] | [10] | [11] | [12] | [13] | [14] | [15]

B2: 11F12 (fully human anti-huBCMA monoclonal antibody) (antibody, V domains shown)
VH: QVQLVESGGGVVQPGRSLRLSCAASGFTFSSYGLHWVRQAPGKGLEWVALISYDGSNKYYADSVKGRFTISRDNSKNTLYLQMNSLRAEDTAVYYCWYSSSWTPLDYWGQGTLVTVSS
VL: DIQMTQSPSSLSASVGDRVTITCRASQGIRNDLGWYQQKPGKAPKRLIYAASSLQSGVPSRFSGSGSGTEFTLTISSLQPEDFATYYCLQYYSYPLTFGGGTKVEIKR
binds: [16] | [17] | [18] | [19]

From patent US20170165373A1
